Screening data, single-dose tests

Amino acid sequences for entries named in this document (tags omitted). Residues count along the entry.
UniProt P9WFT3, whole entry: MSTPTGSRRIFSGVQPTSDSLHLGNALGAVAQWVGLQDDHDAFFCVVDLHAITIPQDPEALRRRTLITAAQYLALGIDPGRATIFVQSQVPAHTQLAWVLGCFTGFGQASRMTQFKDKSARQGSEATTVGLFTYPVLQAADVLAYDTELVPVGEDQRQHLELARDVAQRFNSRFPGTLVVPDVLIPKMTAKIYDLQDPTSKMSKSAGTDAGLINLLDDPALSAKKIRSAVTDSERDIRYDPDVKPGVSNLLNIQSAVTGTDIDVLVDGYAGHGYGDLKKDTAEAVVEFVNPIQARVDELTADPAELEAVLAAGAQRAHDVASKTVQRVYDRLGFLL
UniProt P9WPC5, whole entry: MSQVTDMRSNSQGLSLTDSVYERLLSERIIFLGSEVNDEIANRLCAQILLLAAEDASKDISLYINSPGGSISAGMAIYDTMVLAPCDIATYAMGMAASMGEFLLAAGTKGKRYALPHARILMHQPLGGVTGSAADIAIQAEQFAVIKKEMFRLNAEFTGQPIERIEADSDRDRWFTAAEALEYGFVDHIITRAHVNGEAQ
UniProt P9WPC3, whole entry partner: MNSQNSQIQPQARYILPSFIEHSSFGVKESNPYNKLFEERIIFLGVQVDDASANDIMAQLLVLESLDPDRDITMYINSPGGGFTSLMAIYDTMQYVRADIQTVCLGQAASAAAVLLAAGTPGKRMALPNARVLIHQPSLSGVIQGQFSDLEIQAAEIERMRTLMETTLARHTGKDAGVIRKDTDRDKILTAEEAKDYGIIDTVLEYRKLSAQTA
UniProt Q8IDJ8, 1-583: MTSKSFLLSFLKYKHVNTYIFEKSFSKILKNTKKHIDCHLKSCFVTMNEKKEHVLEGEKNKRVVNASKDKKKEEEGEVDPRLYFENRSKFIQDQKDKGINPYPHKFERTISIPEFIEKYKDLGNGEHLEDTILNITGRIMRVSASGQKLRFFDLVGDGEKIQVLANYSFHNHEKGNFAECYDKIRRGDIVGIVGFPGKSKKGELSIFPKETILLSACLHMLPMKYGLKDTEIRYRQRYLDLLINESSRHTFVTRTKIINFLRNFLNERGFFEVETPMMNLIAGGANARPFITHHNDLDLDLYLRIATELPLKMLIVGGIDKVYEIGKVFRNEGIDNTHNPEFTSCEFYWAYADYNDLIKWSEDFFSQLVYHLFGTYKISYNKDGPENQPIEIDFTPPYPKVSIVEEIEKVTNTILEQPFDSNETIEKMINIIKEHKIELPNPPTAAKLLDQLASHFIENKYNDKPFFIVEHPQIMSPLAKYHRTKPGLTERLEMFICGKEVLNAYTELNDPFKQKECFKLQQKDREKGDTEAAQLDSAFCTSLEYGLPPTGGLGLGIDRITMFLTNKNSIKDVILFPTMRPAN
UniProt P9WNZ1, whole entry: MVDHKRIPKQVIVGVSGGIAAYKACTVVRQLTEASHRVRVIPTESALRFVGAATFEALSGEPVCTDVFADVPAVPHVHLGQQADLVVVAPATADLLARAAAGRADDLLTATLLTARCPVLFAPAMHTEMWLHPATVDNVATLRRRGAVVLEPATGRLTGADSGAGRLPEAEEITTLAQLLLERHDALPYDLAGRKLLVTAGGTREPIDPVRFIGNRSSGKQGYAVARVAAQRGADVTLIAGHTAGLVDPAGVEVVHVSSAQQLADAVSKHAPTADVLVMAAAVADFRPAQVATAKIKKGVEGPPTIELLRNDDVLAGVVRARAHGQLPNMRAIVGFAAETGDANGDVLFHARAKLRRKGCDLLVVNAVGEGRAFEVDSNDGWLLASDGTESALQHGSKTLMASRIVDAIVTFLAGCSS

Measurements from “University of Dundee, Small-Polar-MMV Screening Library” (2021), ChEMBL document CHEMBL3988442.

MtTrpRS: 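Enzyme assay of tryptophanyl-tRNA synthetase; the read-out is not stated. Target: Tryptophan-tRNA ligase, Mycobacterium tuberculosis (UniProt P9WFT3). Compounds at 10 µM. Higher most likely means stronger inhibition; the record gives no direction and few retests gave an IC50. About 65,000 compounds were tested under these conditions; 0.098% (about 64) showed 50% or more at least once.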
ClpP1P2: 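Protease assay of ClpP1P2, read by the AMC dye that it sets free. Target: ClpP1P2, Mycobacterium tuberculosis (UniProt P9WPC5 and UniProt P9WPC3). Concentration: 50 µM. Direction is inferred from only a few compounds that gave an IC50; most scored high, so higher reads as stronger inhibition. Most other retested compounds had strongly negative values. Of about 69,000 compounds tested this way, about 10 (0.015%) reached 50% or more in at least one test.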
Leishmania in macrophages: 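Cell assay of Leishmania donovani living inside macrophages; the read-out is not stated. Tested at 30 µM. Direction is inferred from retests: higher values go with stronger inhibition. About 69,000 compounds were tested under these conditions; 1.5% (about 1,000) showed 50% or more at least once.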
PfKRS1: 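Lysine-tRNA ligase, Plasmodium falciparum 3D7 (UniProt Q8IDJ8). Enzyme assay of the cytosolic lysyl-tRNA synthetase in 384-well plates, read by luminescence. Tested at 30 µM. Higher reads as stronger inhibition, judged from the few compounds that gave an IC50. Size under these conditions: about 69,000 compounds, about 49 of them at 50% or above in at least one test.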
CoaBC: 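Coenzyme A biosynthesis protein CoaBC, Mycobacterium tuberculosis (UniProt P9WNZ1). Enzyme assay of CoaBC with a phosphate dye (Biomol Green) read at 650 nm. Compounds at 30 µM. Higher reads as stronger inhibition, judged from the few compounds that gave an IC50. Most strong results did not repeat in a second test. Of about 67,000 compounds tested this way, about 40 (0.06%) reached 50% or more in at least one test.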

Values are the deposited “Percent Effect”, in %.
How 0% and 100% were set is not recorded. Most values in the screen are low, and negative values occur.
The compounds are a random part of those screened.
Two or more numbers in one place are separate tests of the same structure; such repeats can differ widely.
A dash means the value is not listed here; it may have been measured.

structure | MtTrpRS | ClpP1P2 | Leishmania in macrophages | PfKRS1 | CoaBC
COc1cccc(C2SCC(=O)Nc3ccsc32)c1OC (stereo not given) | -3.141% | 2.702% | 6.393% | 1.902% | 9.636%
Cc1nc(COCC2CN(C(=O)N(C)C)Cc3nccn3C2)cs1.O=C(O)C(F)(F)F (stereo not given) | - | - | 19.49% | - | -
O=C(O)C(F)(F)F.[H][C@]12C[C@@H](CN(C)C)N(C(C)=O)[C@@]1([H])CCN(C(=O)Cc1cccs1)C2 | - | - | 5.566% | - | -
FC(F)(F)COc1cccc(-c2nc3c([nH]2)CCNC3)c1 | 0.4188% | -3.29% | 27.16% | 7.924% | -42.68%
Cc1nn(C)c(C)c1C1COCCN1C(=O)CC(C)(C)C (stereo not given) | 2.545% | -11.97% | -5.762% | 3.297% | 3.071%
COCc1nnc2n1CCN(Cc1ccoc1)C2 | 3.417% | -9.316% | - | 4.983% | -1.629%
Cc1cnn(C2CCCN(C(=O)c3ccccc3-n3cnnn3)C2)c1 (stereo not given) | 2.807% | -12.33% | 10.77% | 0.2878% | 2.632%
NC(=O)c1csc(N2CCCC(c3n[nH]c(=O)n3-c3ccccc3)C2)n1 (stereo not given) | 1.709% | -12.37% | 6.585% | 28.88% | 8.855%
CC(=O)N1CCN(c2ccnc(C)n2)CC(COc2ccccc2)C1 (stereo not given) | - | 15.12% | 30.06% & 15% | 4.37% | 4.358%
CSCC(=O)Nc1cccc(Oc2ccccn2)c1 | 4.417% | -0.6432% | 8.841% | 8.737% | 4.959%
COc1c(C2CCCN2C(=O)c2c[nH]c3ncccc23)c(C)nn1C (stereo not given) | -1.687% | -3.852% | -19.02% | 2.812% | 1.318%
CC(C)(C)c1nc(CN(Cc2cccnc2)C2CN3CCC2CC3)no1 (stereo not given) | -2.252% | -14.72% | 22.44% | 3.246% | 2.589%
COc1cccc(-n2nnc(C(=O)N3CCN(C(C)=O)CC3)c2C)c1 | 17.91% | -5.001% | -6.931% | -0.9036% | 5.263%
[H][C@@]12C[C@H](c3nc(C)no3)CN(S(=O)(=O)C3CC3)[C@]1([H])CCO2 | - | - | 17.76% | - | -
O=S1(=O)c2ccccc2C2(CCN(Cc3cccnc3)C2)N1CC1CC1 (stereo not given) | 2.346% | -7.964% | - | 0.8285% | 0%
N#CCCN(Cc1ccco1)C(=O)Cc1ccc(-n2cnnn2)cc1 | -9.276% | -1.97% | -9.633% | 4.247% | 4.762%
CC(C)N1Cc2cccc(NCC(=O)N(C)C)c2C1 | 0.09633% | -7.899% | 62.8% | -1.956% | -1.739%
CCNC(=O)c1cn(C(C)(C)C)c2ncccc12 | - | -0.9082% | 20.5% | 3.245% | -0.7282%
O=C([C@@H]1COC[C@H]2CN(CC3CC3)C[C@H]21)N1CCC(F)CC1 | 1.618% | -1.921% | - | -4.859% | -
Cc1csc(N2CCN(C(=O)c3c(C)oc(C)c3C)CC2)n1 | -4.35% | -11.12% | 32.26% | -0.08719% | 2.35%
Cn1cc(CN2CCc3ccc(=O)n(CC4CC4)c3CC2)cn1 | - | -5.349% | 35.31% | 3.477% | 2.545%
Cn1cc(CN2CCn3cc(CNC(=O)C4CCC4)nc3C2)cn1.O=C(O)C(F)(F)F | - | - | -2.098% | - | -
Cc1occc1C(=O)N(CCN(C)C)Cc1ccccn1 | -1.41% | -9.348% | 16.17% | -0.155% | -0.9828%
c1cc(-c2nc(CN3CCc4c(ncn4C4CC4)C3)cs2)cs1 | -8.422% | -76.75% | 8.444% | 1.091% | 6.316%
Cc1cc(C(=O)Nc2ccc(CN3CCOCC3)cn2)n(C)n1 | -2.259% | -6.871% | 8.009% | 3.678% | 3.797%
CCOC(=O)C1CCN(Cc2c(O)ccc3oc4c(c23)CCCC4)CC1 | 3.396% | 4.102% | -5.865% | 1.064% | 1.707%
CCc1cccc(N2CCC(NC(=O)c3ccoc3C)CC2)c1 | 9.329% | -13.23% | -12.91% | -4.487% | 5.216%
Cc1csc2c(N3CCC(NCCCc4cnn(C)c4)CC3)ncnc12 | 2.391% | -12.41% | 24.88% | 4.032% | 4.463%
CN(C)Cc1nc2c(o1)CN(C(=O)c1ccncc1F)C2 | -4.824% | -3.564% | 15.97% | 2.816% | 1.478%
CC1CN(C)c2ccccc2CN1CCn1cncn1 (stereo not given) | 2.1% | -3.474% | 7.629% | 5.672% | 1.653%
O=C(O)C(F)(F)F.O=C1CCCN1Cc1ncn2c1CN(C(=O)N1CCCC1)CCC2 | - | - | -5.697% | - | -
O=C(c1ccoc1)N1CC[C@H]2[C@H]1CCN2S(=O)(=O)C1CC1 | 6.268% | -15.65% | - | -2.186% | 13.73%
O=C(c1ccncc1)N(CCO)Cc1cc(Br)ccc1F | -2.617% | 10.77% | 15.29% | 2.176% | -1.415%
Cc1n[nH]c(C)c1CC(=O)NCc1ccccc1Cl | 3.749% | -11.64% | 5.289% & 14.11% | 4.148% | 0%
Cc1ccc(N2CCCN(C(=O)CCCn3ccnc3C)CC2)nn1 | -1.329% | 12.7% | -4.217% | -1.722% | 2.166%
COc1ccc(Cl)cc1NC(=O)N(C)CC(O)COCCOC(C)C (stereo not given) | 1.83% | 2.162% | 3.85% | 3.968% | -4.783%
c1ccc(CNc2ncc(CN3CCCN4CCC[C@H]4C3)cn2)cc1 | 0.1282% | -11.64% | - | -1.252% | 5.897%
Cc1ccc(-c2noc(CN3CCC(N4CCNC4=O)CC3)n2)cc1 | 17.33% | 4.202% | 33.86% | -1.152% | 4.774%
CO[C@H]1CN(C(=O)OC(C)(C)C)CC1NCc1ccoc1 (stereo not given in full) | 1.331% | -14.89% | 7.283% | 2.715% | 3.283%
Cc1nc(CN2CCCC(N(C)CCOCC(F)(F)F)C2)no1 (stereo not given) | -11.51% | 0.5519% | 21.39% | 1.727% | -2.806%
Cn1cc(NS(=O)(=O)CC2CCCCO2)cn1 (stereo not given) | -3.419% | 0.8492% | 1.251% | 0.6959% | 2.335%
COCCn1c(=O)n(Cc2cccc(F)c2F)c2cc(C(=O)O)ccc21 | -0.3734% | -2.453% | 1.765% | -3.376% | -1.72%
CCN1CCC2(CCN(Cc3nccs3)CC2)C1=O.O=C(O)C(F)(F)F | - | - | 12.47% | - | -
CC(C)N(C)CCCNC(=O)c1cnn(C(C)C)c1C(F)(F)F | -0.4854% | 7.218% | -8.17% | -1.706% | -22.65%
COCCCNC(=O)Cc1cc(-c2ccccc2)on1 | 12.01% | 14.2% | 3.068% | -2.771% | 5.462%
CNC(=O)C1CN(Cc2ccc(C#N)cc2F)c2ccccc2O1 (stereo not given) | -3.665% | 7.379% | 34.5% | 7.343% | -3.212%

For reference, 4 entries once more:

For Cc1occc1C(=O)N(CCN(C)C)Cc1ccccn1 the result was MtTrpRS: -1.41%; ClpP1P2: -9.348%; Leishmania in macrophages: 16.17%; PfKRS1: -0.155%; CoaBC: -0.9828%.
For COCCCNC(=O)Cc1cc(-c2ccccc2)on1 the result was MtTrpRS: 12.01%; ClpP1P2: 14.2%; Leishmania in macrophages: 3.068%; PfKRS1: -2.771%; CoaBC: 5.462%.
For O=C(O)C(F)(F)F.[H][C@]12C[C@@H](CN(C)C)N(C(C)=O)[C@@]1([H])CCN(C(=O)Cc1cccs1)C2 the result was Leishmania in macrophages: 5.566%.
For Cc1csc2c(N3CCC(NCCCc4cnn(C)c4)CC3)ncnc12 the result was MtTrpRS: 2.391%; ClpP1P2: -12.41%; Leishmania in macrophages: 24.88%; PfKRS1: 4.032%; CoaBC: 4.463%.